# In patent US20110129935:
# The exact form of at least one protein or probe is not confirmed.
# Target: Tus (Escherichia coli) (UniProt P16525)
# Assay: SPR
# Conditions: CITED Mulcair et al. 2006; 250 mM KCl; measured on sequence without GC extension; purified recombinant protein
row,Sequence,Kd
1,CTTTAGTTACAACATACTTATCCCCGCCCCC / GAAATCAATGTTGTATGAATAGGGGCGGGGG [TerB (GC-extended)],1.4 nM

# Target: Tus-GFP (His6-Tus-LGSGGH-GFPuv) (Escherichia coli) (UniProt P16525)
# Assay: EMSA
# Conditions: complex Tagg 58.7 C, +14.4 C shift; low salt; also confirmed by S method; purified recombinant protein
row,Sequence,binding result
1,CTTTAGTTACAACATACTTATCCCCGCCCCC / GAAATCAATGTTGTATGAATAGGGGCGGGGG [TerB (GC-extended)],binds

# Target: Tus-GFP (His6-Tus-LGSGGH-GFPuv) (Escherichia coli) (UniProt P16525)
# Assay: binding assay
# Conditions: isothermal aggregation (kagg) at 50 C, 250 mM KCl; kagg increases with KD; purified recombinant protein; variant of TerB (GC-extended)
row,Sequence,binding result
1,CTTTAGTTACAACATACTTATCACCCCGCCCCC / AATCAATGTTGTATGAATAGTGGGGCGGGGG [Ter-AG],binds
2,CTTTAGTTACAACATACTTATCACCCCGCCCCC / ATCAATGTTGTATGAATAGTGGGGCGGGGG [Ter-AAG],binds

# Same assay, conditions: isothermal aggregation (kagg) at 50 C, 250 mM KCl; ln kagg ratio correlates with ln KD; purified recombinant protein; variant of TerB (GC-extended)
row,Sequence,binding result
1,CCCCCGCCCCCAATACTTTAGTTACAACATACTTAT / GGGGGCGGGGGTTATGAAATCAATGTTGTAT [TT-lock],binds

# Target: Tus-GFP (His6-Tus-LGSGGH-GFPuv) (Escherichia coli) (UniProt P16525)
# Assay: activity assay
# Conditions: GFP thermal melt, 139.4 mM KCl; no DNA 45.2 C; purified recombinant protein
row,Sequence,activity on this sequence
1,AACATGGAAGTTGTAACTAACCGGGGGGCGGGG / TTGTACCTTCAACATTGATTGGCCCCCCGCCCC [Ter I],63.2 C (Tagg)
2,AATAAGTATGTTGTAACTAAAGTGGGGGCGGGG / TTATTCATACAACATTGATTTCACCCCCGCCCC [Ter B],66.3 C (Tagg)
3,AATTAGTATGTTGTAACTAAAGTGGGGGCGGGG / TTAATCATACAACATTGATTTCACCCCCGCCCC [Ter A],66 C (Tagg)
4,ACGCAGTAAGTTGTAACTAATGCGGGGGCGGGG / TGCGTCATTCAACATTGATTACGCCCCCGCCCC [Ter J],61.8 C (Tagg)
5,ATATAGGATGTTGTAACTAATATGGGGGCGGGG / TATATCCTACAACATTGATTATACCCCCGCCCC [Ter C],66.2 C (Tagg)
6,CATTAGTATGTTGTAACTAAATGGGGGGCGGGG / GTAATCATACAACATTGATTTACCCCCCGCCCC [Ter D],66.2 C (Tagg)
7,CCTTCGTATGTTGTAACGACGATGGGGGCGGGG / GGAAGCATACAACATTGCTGCTACCCCCGCCCC [Ter F],58.6 C (Tagg)
8,CGATCGTATGTTGTAACTATCTCGGGGGCGGGG / GCTAGCATACAACATTGATAGAGCCCCCGCCCC [Ter H],63.4 C (Tagg)
9,GTCAAGGATGTTGTAACTAACCAGGGGGCGGGG / CAGTTCCTACAACATTGATTGGTCCCCCGCCCC [Ter G],64.9 C (Tagg)
10,TTAAAGTATGTTGTAACTAAGCAGGGGGCGGGG / AATTTCATACAACATTGATTCGTCCCCCGCCCC [Ter E],65.1 C (Tagg)
